# Experimental data taken from patent US20260021147A1, “COMPOSITIONS AND METHODS FOR TREATING INFLAMMATORY DISEASE” (The Regents of the University of Michigan, priority 2022, published 2026).
# For at least one compound, name, drawing or mass did not settle the structure.
# Test: Short chain fatty acids profiling of mouse feces by IC-MS
# Assay type: in vivo
# Details: allogeneic mice, day 20
# Protocol: To determine the relative abundance of short chain fatty acids in mouse feces samples, extracts were prepared and analyzed by ultra-high resolution mass spectrometry (HRMS). Fecal pellets were homogenized with a Precellys Tissue Homogenizer. Metabolites were extracted using 1 mL ice-cold 0.1% Ammonium hydroxide in 80/20 (v/v) methanol/water. Extracts were centrifuged at 17,000 g for 5 min at 4° C., and supernatants were transferred to clean tubes, followed by evaporation to dryness under nitrogen. Dried extracts were reconstituted in deionized water, and 5 μL was injected for analysis by IC-MS. IC mobile phase A (MPA; weak) was water, and mobile phase B (MPB; strong) was water containing 100 mM KOH. A Thermo Scientific Dionex ICS-5000+ system included a Thermo IonPac AS11 column (4 μm particle size, 250×2 mm) with column compartment kept at 30° C. The autosampler tray was chilled to 4° C. The mobile phase flow rate was 360 μL/min, and the gradient elution program was: 0-5 min, 1% MPB; 5-25 min, 1-35% MPB; 25-39 min, 35-99% MPB; 39-49 min, 99% MPB; 49-50, 99-1% MPB. The total run time was 50 min. To assist the desolvation for better sensitivity, methanol was delivered by an external pump and combined with the eluent via a low dead volume mixing tee. Data were acquired using a Thermo Orbitrap Fusion Tribrid Mass Spectrometer under ESI negative ionization mode at a resolution of 240,000. […]
smiles,measurement,value
C[C@H]1COc2c(N3CCN(C)CC3)c(F)cc3c(=O)c(C(=O)O)cn1c23 [levofloxacin],fecal levels of SCFAs,did not show substantially reduced fecal levels of SCFAs
